Assay results as given in paper PMC11258688.
These are yes or no findings as the source states them, for the method shown. Some binding calls cover weakened binding; strength is not graded here.

The chains behind the UniProt entries cited, without tags or fusion partners. Residues count along the entry.
UniProt P05067, residues 672-711: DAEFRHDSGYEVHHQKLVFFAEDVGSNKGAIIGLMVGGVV

Biological target: Aβ40 (β-amyloid peptide 1-40), as fibrils P2′ and P2″ grown from monomer with P1 seeds and αBC, and as mature P2 fibrils (UniProt P05067)
Assay: co-sedimentation; Aβ40 fibrils grown from 50 μM monomeric Aβ40 with 5% P1 seeds and 5 μM (P2′) or 25 μM (P2″) αBC; one round of sedimentation; αBC found with the fibrils (Figure S1E); both purified

- binding: binds
B1: small heat shock protein αB-Crystallin (protein, UniProt P02511 1-175)
chain: MDIAIHHPWIRRPFFPFHSPSRLFDQFFGEHLLESDLFPTSTSLSPFYLRPPSFLRAPSWFDTGLSEMRLEKDRFSVNLDVKHFSPEELKVKVLGDVIEVHGKHEERQDEHGFISREFHRKYRIPADVDPLTITSSLSSDGVLTVNGPRKQVSGPERTIPITREEKPAVTAAPKK
